Some of these results come from one statement about several compounds together.
What was measured:
[1] = tested on: Pyrenophora teres; assay: In vivo test on Pyrenophora teres (barley net blotch) on barley plants; conditions: dose of 500 ppm; barley plants sprayed 24 h before contamination; grading 12 days after contamination vs control plants
[2] = tested on: Alternaria brassicae; assay: In vivo test on Alternaria brassicae (leaf spot of crucifers) on radish plants; conditions: dose of 500 ppm; radish plants sprayed 24 h before contamination; grading 6 to 7 days after contamination vs control plants
Method: (§1) The active ingredients tested are prepared by homogenization in a mixture of DMSO (dimethylsulfoxid)/acetone/tween/water. This suspension is then diluted with water to obtain the desired active material concentration.
Radish plants (Pernot variety) in starter cups, sown on a 50/50 peat soil-pozzolana substrate and grown at 18-20° C., are treated at the cotyledon stage by spraying with the aqueous suspension described above.
Plants, used as controls, are treated with an aqueous solution not containing the active material.
After 24 hours, the plants are contaminated by spraying them with an aqueous suspension of Alternaria brassicae spores (40,000 spores per cm^3). The spores are collected from a 12-13-day-old culture.
The contaminated radish plants are incubated for 6-7 days at about 18° C., under a humid atmosphere.
Grading is carried out 6 to 7 days after the contamination, in comparison with the control plants.

[3] = tested on: Botrytis cinerea; assay: In vivo test on Botrytis cinerea (gherkin grey mould) on gherkin plants; conditions: dose of 500 ppm; gherkin plants sprayed 24 h before contamination; grading 5/7 days after contamination vs control plants
Method: as §1
Gherkin plants (Petit Vert de Paris variety) in starter cups, sown on a 50/50 peat soil-pozzolana substrate and grown at 18-20° C., are treated at the cotyledon Z11 stage by spraying with the aqueous suspension described above. Plants, used as controls, are treated with an aqueous solution not containing the active material.
After 24 hours, the plants are contaminated by depositing drops of an aqueous suspension of Botrytis cinerea spores (150,000 spores per ml) on upper surface of the leaves. The spores are collected from a 15-day-old culture and are suspended in a nutrient solution composed of: • 20 g/L of gelatin • 50 g/L of cane sugar • 2 g/L of NH4NO3 • 1 g/L of KH2PO4
The contaminated gherkin plants are settled for 5/7 days in a climatic room at 15-11° C. (day/night) and at 80% relative humidity.
Grading is carried out 5/7 days after the contamination, in comparison with the control plants.

| Compound | protection (good, at least 70%, to total) [1] | protection (good, at least 70%, to total) [2] | protection (good, at least 70%, or total) [3] |
| --- | --- | --- | --- |
| O=C(NC1CCCCC1c1ncc(Cl)cc1Cl)c1ccccc1C(F)(F)F (centres unmarked) [Compound 1, N-{2-[3,5-dichloro-2-pyridinyl]-cyclohexyl}-2-(trifluoromethyl)benzamide] | at least 70% | at least 70% | – |
| O=C(NC1CC1c1ncc(Cl)cc1Cl)c1ccccc1I (centres unmarked) [Compound 3, N-[2-(3,5-dichloropyridin-2-yl)cyclopropyl]-2-iodobenzamide] | at least 70% | at least 70% | at least 70% |

— patent US7932396B2, “2-pyridinylcycloalkylbenzamide derivatives and their use as fungicides” (Bayer Cropscience AG, priority 2005, dated 2011)
